Construct, isoform or probe ends are uncertain for at least one entry. For some assays here: At least one verdict rests on a figure or table, not on a statement of the authors.
Experiments:
[1] = system: RNAP holoenzyme with [211Cys-TMR] sigma70 (RNAP beacon) S211C (Escherichia coli); test: fluorescence RNAP beacon titration; details: no gpT5.026; 40 mM Tris-HCl pH 8.0, 100 mM NaCl, 5% glycerol, 1 mM DTT, 10 mM MgCl2, 0.02% Tween 20, 25 C; 1 nM labeled RNAP holoenzyme; recombinant protein; protein details: 5-TMR label at sigma70 position 211; single-stranded DNA
[2] = system: RNAP holoenzyme with [211Cys-TMR] sigma70 (RNAP beacon) + gpT5.026 S211C; test: fluorescence RNAP beacon titration; details: 100 nM gpT5.026 preincubated 15 min; 40 mM Tris-HCl pH 8.0, 100 mM NaCl, 5% glycerol, 1 mM DTT, 10 mM MgCl2, 0.02% Tween 20, 25 C; 1 nM labeled RNAP holoenzyme; recombinant protein; single-stranded DNA

Q: Does TATAATAGATTCAT [-12/+2 oligonucleotide] bind [1]?
A: Result: binds

Q: And the binding signal (fold lower binding than without gpT5.026) [2]?
A: The binding signal (fold lower binding than without gpT5.026) was 8.

Source: article PMC7472727, “Novel Escherichia coli RNA Polymerase Binding Protein Encoded by Bacteriophage T5”
